In article PMC9620001 (Journal of Medicinal Chemistry, 2022):

Columns and labels:
[1] = in vitro; conditions: human, microsomes, HLM CLint
[2] = physchem; conditions: aqueous buffer, kinetic from dmso stock

## COCc1nn(Cc2ccc(Cn3ccccc3=O)cc2)cc1C(=O)NCc1c(F)ccc(OC)c1C(F)F [Compound 13m, COCc1nn(cc1C(=O)NCc1c(ccc(c1C(F)F)OC)F)Cc1ccc(cc1)CN1C=CC=CC1=O]
other
  kinetic sol aq assay buffer (pH 7.4): >0.13 mg/mL
[1]
  microsomal CLint: 100 µL/min/mg
[2]
  solubility kinetic at 30 s: > 130 µg/mL
